# Data taken from article PMC4814574.
# Chains of the proteins cited; added tags and fusions are not shown.
# UniProt P49715, whole entry: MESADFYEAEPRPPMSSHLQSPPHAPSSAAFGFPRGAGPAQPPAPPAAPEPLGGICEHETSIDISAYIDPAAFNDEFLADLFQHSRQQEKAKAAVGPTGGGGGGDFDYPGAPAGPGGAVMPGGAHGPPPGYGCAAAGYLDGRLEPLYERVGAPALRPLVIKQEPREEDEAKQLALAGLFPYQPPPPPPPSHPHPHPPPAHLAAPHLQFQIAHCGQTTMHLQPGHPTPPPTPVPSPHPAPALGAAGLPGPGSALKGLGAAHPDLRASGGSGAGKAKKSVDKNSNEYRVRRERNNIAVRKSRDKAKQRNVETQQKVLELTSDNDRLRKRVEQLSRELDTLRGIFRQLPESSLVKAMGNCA
# Construct, isoform or probe ends are uncertain for at least one entry. Where cells or extracts were used, other partners may take part.
# Columns and labels:
# [1] = target: C/EBPα WT (no ER tag) (human) (UniProt P49715); experiment: EMSA supershift; details: 0.1 and 0.5 ug nuclear extract; 10 mM HEPES-KOH pH 7.9, 50 mM KCl, 2.5 mM MgCl2, 1 mM DTT, 10% glycerol, 1 ug BSA, 0.5 ug poly(dI-dC), 25 ul, on ice 20 min; 6% gel, 0.5x TBE, 4 °C; protein in an extract; residues 1-358
# C/EBPα WT-ER (human) = C/EBPα WT-ER (human) (UniProt P49715); experiment: EMSA supershift; details: K562 cells treated with 5 uM β-estradiol 45 min; 10 mM HEPES-KOH pH 7.9, 50 mM KCl, 2.5 mM MgCl2, 1 mM DTT, 10% glycerol, 1 ug BSA, 0.5 ug poly(dI-dC), 25 ul, on ice 20 min; 6% gel, 0.5x TBE, 4 °C; protein in an extract; residues 1-358; protein details: C-terminal ER ligand-binding domain fusion
sequence,measurement,setting,value
CTAGGGCTTGCGCAATCTATATTCG / CGAATATAGATTGCGCAAGCCCTA [G-CSF receptor promoter C/EBP site oligonucleotide],binding result,[1],binds
same,binding result,C/EBPα WT-ER (human),binds
